The record followed here is paper PMC7743899.

Chains of the proteins cited; added tags and fusions are not shown.
UniProt Q61142: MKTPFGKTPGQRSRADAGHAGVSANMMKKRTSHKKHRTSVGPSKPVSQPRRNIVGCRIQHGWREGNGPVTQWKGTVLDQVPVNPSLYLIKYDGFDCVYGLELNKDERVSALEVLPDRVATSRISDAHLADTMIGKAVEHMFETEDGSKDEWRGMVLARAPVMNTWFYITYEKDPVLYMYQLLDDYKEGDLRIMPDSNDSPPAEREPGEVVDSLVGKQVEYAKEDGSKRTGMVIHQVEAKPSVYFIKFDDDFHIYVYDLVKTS

No constants are given. Whether binding was seen depends on the method and setting. In cells and extracts the contact can be indirect.

In the assay the target is T1, TBL1XR1 (Transducin Beta Like 1 X-Linked Receptor 1) (mouse (endogenous in testis)) (UniProt Q8BHJ5).
T1 sequence: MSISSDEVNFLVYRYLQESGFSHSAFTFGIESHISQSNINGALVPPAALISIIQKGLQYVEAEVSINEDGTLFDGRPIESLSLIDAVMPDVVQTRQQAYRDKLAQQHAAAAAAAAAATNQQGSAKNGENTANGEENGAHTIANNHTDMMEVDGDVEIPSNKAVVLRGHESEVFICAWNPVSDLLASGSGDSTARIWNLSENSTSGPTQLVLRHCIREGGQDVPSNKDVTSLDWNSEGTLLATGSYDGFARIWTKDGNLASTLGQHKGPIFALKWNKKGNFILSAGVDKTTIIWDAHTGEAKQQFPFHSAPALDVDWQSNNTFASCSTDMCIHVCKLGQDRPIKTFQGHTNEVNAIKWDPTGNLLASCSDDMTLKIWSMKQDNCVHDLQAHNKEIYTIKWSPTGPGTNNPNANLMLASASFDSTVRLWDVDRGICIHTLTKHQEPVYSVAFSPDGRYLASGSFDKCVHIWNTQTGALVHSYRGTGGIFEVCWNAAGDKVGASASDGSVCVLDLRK
The experiment in a line: co-IP; antibody (SLY, SLX/SLXL1, SPIN1 or TBL1XR1) cross-linked to protein A/G-coated beads, incubated with whole-testis extracts (WT or Sly-KD) for 1 h, washed in PBS pH 7.5 with 0.65% Tween, eluted with 0.1 M glycine/HCl pH 3.0; Western blot; IgG as negative control.

For SPIN1 (from UniProt Q61142 1-262), the binding result is “no binding”.
